According to publication PMC6731589:
Results are given in words; binding and its absence hold for the method and conditions named. Some entries that bind do so weakly or less than the wild type.

Amino acid sequences for entries named in this document (tags omitted). A change or cut given only in a name is not applied to a line headed by its entry.
UniProt Q9WV92: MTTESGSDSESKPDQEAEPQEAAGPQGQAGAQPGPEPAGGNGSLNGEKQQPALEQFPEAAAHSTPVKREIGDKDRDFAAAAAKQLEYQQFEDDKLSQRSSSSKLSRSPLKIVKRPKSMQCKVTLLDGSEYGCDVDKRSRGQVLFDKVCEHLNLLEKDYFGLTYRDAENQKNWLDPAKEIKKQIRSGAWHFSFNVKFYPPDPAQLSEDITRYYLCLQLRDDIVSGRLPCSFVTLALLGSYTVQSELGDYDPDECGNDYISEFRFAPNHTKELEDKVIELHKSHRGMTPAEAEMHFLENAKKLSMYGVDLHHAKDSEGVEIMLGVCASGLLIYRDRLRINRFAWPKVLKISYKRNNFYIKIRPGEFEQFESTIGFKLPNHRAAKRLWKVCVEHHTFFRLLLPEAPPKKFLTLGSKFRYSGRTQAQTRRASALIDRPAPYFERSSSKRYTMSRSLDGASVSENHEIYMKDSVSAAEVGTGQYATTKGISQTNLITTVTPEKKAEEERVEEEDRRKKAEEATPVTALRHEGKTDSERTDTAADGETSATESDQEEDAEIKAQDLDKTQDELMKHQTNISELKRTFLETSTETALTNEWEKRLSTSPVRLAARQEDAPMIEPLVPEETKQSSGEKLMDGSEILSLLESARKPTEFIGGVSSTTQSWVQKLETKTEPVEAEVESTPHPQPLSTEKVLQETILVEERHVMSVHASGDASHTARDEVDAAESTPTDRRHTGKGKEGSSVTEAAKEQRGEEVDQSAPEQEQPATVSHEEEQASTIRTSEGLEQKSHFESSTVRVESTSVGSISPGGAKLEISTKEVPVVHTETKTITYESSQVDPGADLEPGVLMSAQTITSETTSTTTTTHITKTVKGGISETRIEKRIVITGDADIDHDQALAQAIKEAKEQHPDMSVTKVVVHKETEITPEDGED

Biological target: T1, biotinylated EGFR P13 peptide (initial 13 amino acids of the intracellular JM segment)
T1 sequence (peptide, biotin (position not stated)): RRRHIVRKRTLRR
Experiment: pull-down; biotinylated EGFR P13 peptides on immobilized streptavidin beads, 4.1B protein or GST-tagged 4.1B domains added, 100 μl, coupled protein 2 μM, 1 h at room temperature, western blot (anti-GST antibody for the GST-tagged domains); both purified

Substance | binding
His-tagged 4.1B (the 4.1B 130-kDa protein) (from UniProt Q9WV92 1-929) | binds
GST-tagged FERM domain of 4.1B (from UniProt Q9WV92 118-399) (domain or fragment) | binds
